Source: patent publication US12280069B2, “Methods of using human milk oligosaccharides for improving airway respiratory health” (priority 2010, dated 2025)
At least one structure is not confirmed: it was looked up by name or label, or the drawing left a doubt.

How the values were obtained:
[1] = test system: human parainfluenza virus (HPIV3); format: cell-based; details: at a concentration of 1 mg/mL
H1N1 influenza virus = format: cell-based; details: at a concentration of 1 mg/mL

## CC(=O)N[C@H]1[C@H]([C@H](O)[C@H](O)CO)OC(O)(C(=O)O)C[C@@H]1O (some centres unmarked) [SA, sialic acid]
[1]
  anti-viral activity against HPIV3: significantly inhibits
H1N1 influenza virus
  anti-viral activity against H1N1 influenza virus: significantly inhibits
